This assay concerns the target GST fusion of the Rho binding domain (RBD) of Rhotekin (UniProt Q8C6B2). Description: pull-down; only the target purified.

The chains behind the UniProt entries cited, without tags or fusion partners. Residues count along the entry.
UniProt Q8C6B2, residues 7-89: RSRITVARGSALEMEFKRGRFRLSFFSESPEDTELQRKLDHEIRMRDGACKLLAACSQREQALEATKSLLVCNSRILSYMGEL
UniProt P61586: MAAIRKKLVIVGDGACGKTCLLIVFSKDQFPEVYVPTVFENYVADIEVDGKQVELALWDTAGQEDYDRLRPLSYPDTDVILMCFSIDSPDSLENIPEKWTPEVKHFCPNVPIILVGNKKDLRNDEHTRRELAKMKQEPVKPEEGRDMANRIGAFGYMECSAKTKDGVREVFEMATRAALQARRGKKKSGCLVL

No constants are given. Whether binding was seen depends on the method and setting. Binding seen in cells or lysates may run through a third protein. Some binding calls cover weakened binding; strength is not graded here.

The results in this text go back to publication PMC7842913.

“RhoA, endogenous in HeLa cells (GTP-bound) (from UniProt P61586 1-193)”: the binding result is given as “binds”.
